Measured values taken from the supplement of paper PMC12067093, “Discovery and optimisation of a covalent ligand for TRIM25 and its application to targeted protein ubiquitination” (Chemical Science, 2025).
This is one part of the list.

Chains of the proteins cited; added tags and fusions are not shown. Lines headed by an entry give the natural chain unless they say otherwise; changes in a name come on top.
UniProt P38919, whole entry, looked up: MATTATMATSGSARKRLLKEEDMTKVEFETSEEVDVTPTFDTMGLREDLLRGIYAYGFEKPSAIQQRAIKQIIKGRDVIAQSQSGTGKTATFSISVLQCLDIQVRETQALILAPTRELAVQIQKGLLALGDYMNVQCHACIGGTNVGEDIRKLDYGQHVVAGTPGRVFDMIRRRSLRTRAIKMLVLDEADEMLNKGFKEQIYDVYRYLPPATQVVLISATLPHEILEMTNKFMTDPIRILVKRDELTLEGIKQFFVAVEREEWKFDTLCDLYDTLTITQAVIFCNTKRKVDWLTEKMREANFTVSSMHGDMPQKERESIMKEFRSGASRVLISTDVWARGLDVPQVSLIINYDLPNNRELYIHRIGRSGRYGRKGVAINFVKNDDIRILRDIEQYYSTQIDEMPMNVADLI
UniProt O43432, whole entry, looked up: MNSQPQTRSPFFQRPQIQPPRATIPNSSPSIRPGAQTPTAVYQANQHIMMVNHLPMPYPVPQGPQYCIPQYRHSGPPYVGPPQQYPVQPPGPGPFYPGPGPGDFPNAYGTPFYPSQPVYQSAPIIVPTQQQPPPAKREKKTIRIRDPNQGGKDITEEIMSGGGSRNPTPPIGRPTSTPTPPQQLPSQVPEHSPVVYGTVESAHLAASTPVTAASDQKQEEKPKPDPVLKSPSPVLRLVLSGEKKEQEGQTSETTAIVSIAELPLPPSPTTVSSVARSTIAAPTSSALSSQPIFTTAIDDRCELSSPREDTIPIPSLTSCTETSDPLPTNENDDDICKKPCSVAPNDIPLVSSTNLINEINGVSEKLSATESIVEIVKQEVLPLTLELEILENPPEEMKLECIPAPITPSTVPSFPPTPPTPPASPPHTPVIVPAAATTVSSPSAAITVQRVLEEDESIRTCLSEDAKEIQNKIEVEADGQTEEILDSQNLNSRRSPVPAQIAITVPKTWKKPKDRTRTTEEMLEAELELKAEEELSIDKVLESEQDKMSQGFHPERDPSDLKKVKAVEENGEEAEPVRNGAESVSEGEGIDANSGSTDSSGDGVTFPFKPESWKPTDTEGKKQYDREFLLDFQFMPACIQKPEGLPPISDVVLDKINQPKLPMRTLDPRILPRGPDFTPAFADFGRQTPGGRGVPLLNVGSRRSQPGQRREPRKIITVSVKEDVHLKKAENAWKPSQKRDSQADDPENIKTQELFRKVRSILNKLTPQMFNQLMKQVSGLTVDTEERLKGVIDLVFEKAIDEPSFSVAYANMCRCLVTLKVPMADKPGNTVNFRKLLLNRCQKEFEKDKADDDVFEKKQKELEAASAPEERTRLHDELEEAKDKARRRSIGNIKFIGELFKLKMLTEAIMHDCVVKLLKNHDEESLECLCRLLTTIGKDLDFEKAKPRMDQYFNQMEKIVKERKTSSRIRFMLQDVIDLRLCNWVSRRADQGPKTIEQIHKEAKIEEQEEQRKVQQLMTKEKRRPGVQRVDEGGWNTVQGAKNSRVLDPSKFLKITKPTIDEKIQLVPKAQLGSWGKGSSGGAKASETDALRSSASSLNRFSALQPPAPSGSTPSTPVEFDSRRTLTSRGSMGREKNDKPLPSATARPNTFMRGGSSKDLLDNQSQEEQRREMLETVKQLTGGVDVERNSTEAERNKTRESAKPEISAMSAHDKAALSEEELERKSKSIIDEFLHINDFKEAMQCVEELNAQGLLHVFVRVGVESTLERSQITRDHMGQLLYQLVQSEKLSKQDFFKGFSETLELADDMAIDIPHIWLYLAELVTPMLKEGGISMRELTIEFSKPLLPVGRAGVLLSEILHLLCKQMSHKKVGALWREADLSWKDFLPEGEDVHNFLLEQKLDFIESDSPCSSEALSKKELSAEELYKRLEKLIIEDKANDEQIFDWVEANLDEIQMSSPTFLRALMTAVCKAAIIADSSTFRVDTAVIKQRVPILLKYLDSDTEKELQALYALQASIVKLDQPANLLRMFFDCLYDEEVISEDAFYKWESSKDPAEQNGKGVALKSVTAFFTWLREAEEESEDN
UniProt P07814: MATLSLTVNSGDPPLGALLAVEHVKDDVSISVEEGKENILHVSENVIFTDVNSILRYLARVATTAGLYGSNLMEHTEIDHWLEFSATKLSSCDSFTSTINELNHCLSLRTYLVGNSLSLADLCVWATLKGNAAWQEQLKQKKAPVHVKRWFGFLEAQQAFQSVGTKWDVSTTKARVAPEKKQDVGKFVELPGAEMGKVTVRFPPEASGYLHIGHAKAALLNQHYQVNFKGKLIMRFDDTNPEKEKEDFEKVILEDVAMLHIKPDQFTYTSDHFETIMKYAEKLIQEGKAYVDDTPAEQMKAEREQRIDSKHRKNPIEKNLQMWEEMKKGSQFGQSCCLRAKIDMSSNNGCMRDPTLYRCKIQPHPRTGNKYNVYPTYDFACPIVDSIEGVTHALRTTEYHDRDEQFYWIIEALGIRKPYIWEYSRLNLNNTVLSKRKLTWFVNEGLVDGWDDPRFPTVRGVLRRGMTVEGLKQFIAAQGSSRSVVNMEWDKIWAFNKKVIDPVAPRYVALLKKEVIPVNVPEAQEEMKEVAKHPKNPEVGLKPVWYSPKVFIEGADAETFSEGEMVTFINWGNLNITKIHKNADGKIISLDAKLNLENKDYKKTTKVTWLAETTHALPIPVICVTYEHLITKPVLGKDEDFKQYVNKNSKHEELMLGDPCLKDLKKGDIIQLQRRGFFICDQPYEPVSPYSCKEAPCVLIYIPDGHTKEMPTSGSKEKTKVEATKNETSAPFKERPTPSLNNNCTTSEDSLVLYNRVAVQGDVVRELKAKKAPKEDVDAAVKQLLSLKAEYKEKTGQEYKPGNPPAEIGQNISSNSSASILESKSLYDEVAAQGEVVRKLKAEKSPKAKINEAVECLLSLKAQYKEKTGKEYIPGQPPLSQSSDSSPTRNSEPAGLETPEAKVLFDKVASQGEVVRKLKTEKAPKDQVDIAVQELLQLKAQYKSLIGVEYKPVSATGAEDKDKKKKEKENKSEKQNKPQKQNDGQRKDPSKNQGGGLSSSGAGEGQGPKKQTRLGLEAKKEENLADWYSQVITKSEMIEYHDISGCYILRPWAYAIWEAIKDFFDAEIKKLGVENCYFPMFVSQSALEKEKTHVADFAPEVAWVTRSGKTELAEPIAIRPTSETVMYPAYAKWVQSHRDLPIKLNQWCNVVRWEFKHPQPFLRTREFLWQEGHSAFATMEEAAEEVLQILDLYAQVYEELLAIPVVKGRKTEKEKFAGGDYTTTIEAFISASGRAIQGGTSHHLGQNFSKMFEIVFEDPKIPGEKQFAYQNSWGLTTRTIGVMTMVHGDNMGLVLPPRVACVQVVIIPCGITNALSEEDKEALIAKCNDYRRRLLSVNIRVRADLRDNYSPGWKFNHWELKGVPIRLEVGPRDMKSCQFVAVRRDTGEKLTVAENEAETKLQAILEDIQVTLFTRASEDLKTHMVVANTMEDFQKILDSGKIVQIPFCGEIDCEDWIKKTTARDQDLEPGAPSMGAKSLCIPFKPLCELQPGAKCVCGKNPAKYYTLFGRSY
UniProt O60841: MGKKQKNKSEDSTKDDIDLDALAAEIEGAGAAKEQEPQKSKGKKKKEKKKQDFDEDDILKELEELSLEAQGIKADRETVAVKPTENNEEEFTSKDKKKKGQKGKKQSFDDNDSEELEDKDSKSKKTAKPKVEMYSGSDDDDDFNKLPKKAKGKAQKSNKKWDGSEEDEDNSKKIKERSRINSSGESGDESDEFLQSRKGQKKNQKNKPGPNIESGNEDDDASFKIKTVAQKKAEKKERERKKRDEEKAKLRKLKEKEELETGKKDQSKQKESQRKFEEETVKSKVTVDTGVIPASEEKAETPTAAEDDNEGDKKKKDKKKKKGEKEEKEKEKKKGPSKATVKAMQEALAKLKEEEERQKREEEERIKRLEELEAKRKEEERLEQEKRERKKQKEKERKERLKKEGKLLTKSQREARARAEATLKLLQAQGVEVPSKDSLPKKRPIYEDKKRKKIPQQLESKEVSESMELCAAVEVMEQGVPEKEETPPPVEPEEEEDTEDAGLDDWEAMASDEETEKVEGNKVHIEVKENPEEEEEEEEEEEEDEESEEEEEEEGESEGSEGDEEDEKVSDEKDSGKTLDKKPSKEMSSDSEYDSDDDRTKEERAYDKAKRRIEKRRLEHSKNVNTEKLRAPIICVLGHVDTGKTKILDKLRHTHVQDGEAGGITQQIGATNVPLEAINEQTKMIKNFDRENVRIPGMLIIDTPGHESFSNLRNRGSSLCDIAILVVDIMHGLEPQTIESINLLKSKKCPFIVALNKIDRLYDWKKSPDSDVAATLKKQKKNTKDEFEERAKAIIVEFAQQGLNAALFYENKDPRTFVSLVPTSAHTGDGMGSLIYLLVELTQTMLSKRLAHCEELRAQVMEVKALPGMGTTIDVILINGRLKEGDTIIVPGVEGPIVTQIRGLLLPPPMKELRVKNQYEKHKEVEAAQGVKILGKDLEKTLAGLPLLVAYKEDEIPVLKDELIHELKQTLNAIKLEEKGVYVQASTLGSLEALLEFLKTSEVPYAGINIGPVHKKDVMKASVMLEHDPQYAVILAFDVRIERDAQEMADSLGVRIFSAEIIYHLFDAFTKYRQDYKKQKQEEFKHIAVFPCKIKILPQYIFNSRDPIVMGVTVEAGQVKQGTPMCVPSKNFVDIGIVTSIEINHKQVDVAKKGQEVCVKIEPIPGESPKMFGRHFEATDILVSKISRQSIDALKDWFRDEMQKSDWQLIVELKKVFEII
UniProt Q8IZ81: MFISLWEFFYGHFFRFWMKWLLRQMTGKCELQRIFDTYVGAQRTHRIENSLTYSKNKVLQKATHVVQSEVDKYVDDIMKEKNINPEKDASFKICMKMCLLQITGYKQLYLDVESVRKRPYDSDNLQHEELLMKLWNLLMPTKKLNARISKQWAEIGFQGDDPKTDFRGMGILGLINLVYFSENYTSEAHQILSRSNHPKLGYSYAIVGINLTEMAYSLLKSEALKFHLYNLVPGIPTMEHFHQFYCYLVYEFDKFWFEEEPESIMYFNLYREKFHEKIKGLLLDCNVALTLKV
UniProt O00303, whole entry: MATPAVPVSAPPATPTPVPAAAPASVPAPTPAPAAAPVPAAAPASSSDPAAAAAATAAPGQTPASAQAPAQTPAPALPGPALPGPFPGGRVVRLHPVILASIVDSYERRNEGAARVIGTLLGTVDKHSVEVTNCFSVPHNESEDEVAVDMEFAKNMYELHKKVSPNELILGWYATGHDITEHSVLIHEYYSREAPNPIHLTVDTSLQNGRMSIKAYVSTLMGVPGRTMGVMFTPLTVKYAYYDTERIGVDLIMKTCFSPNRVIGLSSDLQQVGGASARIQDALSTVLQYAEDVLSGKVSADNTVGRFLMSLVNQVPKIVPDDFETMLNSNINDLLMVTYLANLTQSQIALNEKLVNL
UniProt B3EWF7: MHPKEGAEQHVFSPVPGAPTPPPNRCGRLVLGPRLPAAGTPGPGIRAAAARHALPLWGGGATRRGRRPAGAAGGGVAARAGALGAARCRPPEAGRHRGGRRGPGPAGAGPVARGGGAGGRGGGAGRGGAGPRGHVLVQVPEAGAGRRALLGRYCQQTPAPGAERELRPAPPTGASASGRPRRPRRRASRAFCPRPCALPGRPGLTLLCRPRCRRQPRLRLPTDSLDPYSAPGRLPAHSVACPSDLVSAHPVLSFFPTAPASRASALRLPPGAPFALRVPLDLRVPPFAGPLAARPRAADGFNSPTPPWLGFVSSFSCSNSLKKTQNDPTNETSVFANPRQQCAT
UniProt P34913, whole entry, looked up: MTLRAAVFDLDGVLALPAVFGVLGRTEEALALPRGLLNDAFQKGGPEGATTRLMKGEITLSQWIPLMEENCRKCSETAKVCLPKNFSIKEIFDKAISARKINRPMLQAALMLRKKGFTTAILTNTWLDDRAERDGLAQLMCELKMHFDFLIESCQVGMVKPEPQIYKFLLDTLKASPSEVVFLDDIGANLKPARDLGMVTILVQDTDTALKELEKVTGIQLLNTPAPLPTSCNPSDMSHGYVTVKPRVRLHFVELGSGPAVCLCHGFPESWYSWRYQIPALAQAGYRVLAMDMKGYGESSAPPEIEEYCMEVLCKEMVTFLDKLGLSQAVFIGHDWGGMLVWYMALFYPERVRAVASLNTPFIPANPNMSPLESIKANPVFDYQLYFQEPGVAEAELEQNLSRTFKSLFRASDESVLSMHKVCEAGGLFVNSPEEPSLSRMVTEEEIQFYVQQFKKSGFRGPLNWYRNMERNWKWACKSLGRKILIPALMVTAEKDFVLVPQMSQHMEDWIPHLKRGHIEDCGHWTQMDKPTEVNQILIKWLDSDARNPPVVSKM

Each target was assayed with CC1Cc2ccccc2N1C(=O)C1CCCN(C1)C(=O)CCl (mixture of isomers) [TRIM25 ligand 11 (diastereomer mixture)] (assay: probe-labelled cysteine peptide fold change vs DMSO (competition) (log2 fold change); higher = less target engagement (more negative = stronger competition)). Conditions: 10 µM; THP-1; incubation time: 4 h.
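Also: competitive chemoproteomic profiling in live THP-1 cells with an iodoacetamide desthiobiotin (IA-DTB) probe, comparing probe-labelled peptide intensities in compound-treated cells against DMSO-treated controls.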

Target	probe-labelled cysteine peptide fold change
EIF4A3_P38919_137_GLLALGDYMNVQCHACIGGTNVGEDIRK (UniProt P38919)	0.0579
EIF4G3_O43432_1471_ALMTAVCK (UniProt O43432)	0.0497
EPRS_P07814_350_IDMSSNNGCMR (UniProt P07814)	0.0529
EIF5B_O60841_635_APIICVLGHVDTGK (UniProt O60841)	-0.115
ELMOD2_Q8IZ81_285_GLLLDCNVALTLK (UniProt Q8IZ81)	0.285
EPRS_P07814_336+337_KGSQFGQSCCLR (UniProt P07814)	-0.165
EP400_Q96L91_879_EIECFWSNIEQVVEIK (UniProt Q96L91)	-0.322
EML4_Q9HC35_82_AVIPMSCITNGSGANR (UniProt Q9HC35)	-0.091
ENG_P17813_549_TGTLSCTVALRPK (UniProt P17813)	0.0148
EIF3F_O00303_134_HSVEVTNCFSVPHNESEDEVAVDMEFAK (UniProt O00303)	0.0611
EPRS_P07814_692_RGFFICDQPYEPVSPYSCK (UniProt P07814)	0.0432
EIF5_P55010_99_FVLCPECENPETDLHVNPK (UniProt P55010)	-0.0189
EML2_O95834_203_CSNEAVLVATFHPTDPTVLITCGK (UniProt O95834)	0.0124
EPM2A_B3EWF7_192_RRASRAFCPR (UniProt B3EWF7)	-0.0876
EPHX2_P34913_309_GYGESSAPPEIEEYCMEVLCK (UniProt P34913)	0.335
EPRS_P07814_680_RGFFICDQPYEPVSPYSCK (UniProt P07814)	-0.163

A section taken from the entries so far, as a working copy:
Target	probe-labelled cysteine peptide fold change
EPM2A_B3EWF7_192_RRASRAFCPR (UniProt B3EWF7)	-0.0876
EPHX2_P34913_309_GYGESSAPPEIEEYCMEVLCK (UniProt P34913)	0.335
